In PMC10070233 one finds binding data, which are given here for 2 molecules.

These are yes or no findings as the source states them, for the method shown. Some binding calls cover weakened binding; strength is not graded here. Where a sequence is shown, tags or fusion partners need not be part of it.

In this experiment the target is T1, extracellular region of FGFR4 fused to the Fc fragment of human IgG1 (human) (UniProt P22455).
T1 sequence (chain, N-glycosylated (five putative N-glycosylation sites)): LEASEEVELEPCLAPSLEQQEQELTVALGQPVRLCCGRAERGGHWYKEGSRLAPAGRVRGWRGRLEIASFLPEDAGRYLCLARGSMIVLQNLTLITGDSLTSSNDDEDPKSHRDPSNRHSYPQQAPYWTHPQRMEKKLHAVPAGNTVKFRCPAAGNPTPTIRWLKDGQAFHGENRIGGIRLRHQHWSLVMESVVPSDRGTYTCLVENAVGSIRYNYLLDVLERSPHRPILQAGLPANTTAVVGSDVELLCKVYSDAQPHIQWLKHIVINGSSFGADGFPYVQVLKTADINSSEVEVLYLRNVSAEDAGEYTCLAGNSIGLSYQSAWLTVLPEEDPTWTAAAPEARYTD
The experiment is described as follows: BLI; Octet RED K2; FGFR-Fc variants or Fc (25 μg/mL) immobilised in PBS on Protein-A sensors in a pairwise manner; galectins in solution (50 μg/mL); both purified.

B1: galectin-14 (protein, UniProt Q8TCE9 1-139)
chain: MSSLPVPYTLPVSLPVGSCVIITGTPILTFVKDPQLEVNFYTGMDEDSDIAFQFRLHFGHPAIMNSCVFGIWRYEEKCYYLPFEDGKPFELCIYVRHKEYKVMVNGQRIYNFAHRFPPASVKMLQVFRDISLTRVLISD
On to B1, for which the binding entry is “binds”.

B2: galectin-2 (protein, UniProt P05162 1-132)
chain: MTGELEVKNMDMKPGSTLKITGSIADGTDGFVINLGQGTDKLNLHFNPRFSESTIVCNSLDGSNWGQEQREDHLCFSPGSEVKFTVTFESDKFKVKLPDGHELTFPNRLGHSHLSYLSVRGGFNMSSFKLKE
With B2, the binding result is listed as “binds”.
